# Laboratory results published in article PMC7594058.
# Chains of the proteins cited; added tags and fusions are not shown. Lines headed by an entry give the natural chain unless they say otherwise; changes in a name come on top.
# UniProt P03072: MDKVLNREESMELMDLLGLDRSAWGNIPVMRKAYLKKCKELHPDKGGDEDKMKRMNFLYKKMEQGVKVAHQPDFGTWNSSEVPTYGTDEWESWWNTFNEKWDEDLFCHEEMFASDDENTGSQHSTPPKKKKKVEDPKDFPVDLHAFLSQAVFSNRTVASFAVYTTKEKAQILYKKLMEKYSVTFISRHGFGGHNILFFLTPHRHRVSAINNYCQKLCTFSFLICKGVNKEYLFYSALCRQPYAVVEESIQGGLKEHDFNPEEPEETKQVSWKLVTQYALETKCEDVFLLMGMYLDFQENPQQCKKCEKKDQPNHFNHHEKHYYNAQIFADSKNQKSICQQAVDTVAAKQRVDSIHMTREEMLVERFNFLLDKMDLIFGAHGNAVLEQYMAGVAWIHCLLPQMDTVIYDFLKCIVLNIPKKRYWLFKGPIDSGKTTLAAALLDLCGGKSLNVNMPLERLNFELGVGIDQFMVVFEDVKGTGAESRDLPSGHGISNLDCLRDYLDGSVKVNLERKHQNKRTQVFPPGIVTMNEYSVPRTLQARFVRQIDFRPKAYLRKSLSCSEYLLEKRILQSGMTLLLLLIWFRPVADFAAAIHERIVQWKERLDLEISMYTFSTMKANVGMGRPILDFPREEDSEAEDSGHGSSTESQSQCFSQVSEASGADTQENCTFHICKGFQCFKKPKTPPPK
# UniProt P43355: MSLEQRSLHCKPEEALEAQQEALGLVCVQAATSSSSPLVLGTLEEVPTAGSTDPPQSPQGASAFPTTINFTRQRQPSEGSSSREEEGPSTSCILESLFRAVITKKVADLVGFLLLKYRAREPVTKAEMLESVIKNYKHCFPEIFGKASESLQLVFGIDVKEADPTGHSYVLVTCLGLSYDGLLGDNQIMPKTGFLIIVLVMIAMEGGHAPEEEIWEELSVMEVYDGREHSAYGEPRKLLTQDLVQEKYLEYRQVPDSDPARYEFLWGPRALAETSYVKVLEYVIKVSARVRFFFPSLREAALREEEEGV
# UniProt P67809: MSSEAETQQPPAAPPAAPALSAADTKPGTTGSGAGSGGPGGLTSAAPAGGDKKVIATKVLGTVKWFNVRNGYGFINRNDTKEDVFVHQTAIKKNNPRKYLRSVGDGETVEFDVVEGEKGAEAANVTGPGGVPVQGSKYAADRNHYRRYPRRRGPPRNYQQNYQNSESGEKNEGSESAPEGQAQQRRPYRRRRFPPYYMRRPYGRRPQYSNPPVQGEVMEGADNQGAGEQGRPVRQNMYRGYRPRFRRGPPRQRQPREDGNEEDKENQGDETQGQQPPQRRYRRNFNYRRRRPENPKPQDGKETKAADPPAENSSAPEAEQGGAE
# UniProt Q93050: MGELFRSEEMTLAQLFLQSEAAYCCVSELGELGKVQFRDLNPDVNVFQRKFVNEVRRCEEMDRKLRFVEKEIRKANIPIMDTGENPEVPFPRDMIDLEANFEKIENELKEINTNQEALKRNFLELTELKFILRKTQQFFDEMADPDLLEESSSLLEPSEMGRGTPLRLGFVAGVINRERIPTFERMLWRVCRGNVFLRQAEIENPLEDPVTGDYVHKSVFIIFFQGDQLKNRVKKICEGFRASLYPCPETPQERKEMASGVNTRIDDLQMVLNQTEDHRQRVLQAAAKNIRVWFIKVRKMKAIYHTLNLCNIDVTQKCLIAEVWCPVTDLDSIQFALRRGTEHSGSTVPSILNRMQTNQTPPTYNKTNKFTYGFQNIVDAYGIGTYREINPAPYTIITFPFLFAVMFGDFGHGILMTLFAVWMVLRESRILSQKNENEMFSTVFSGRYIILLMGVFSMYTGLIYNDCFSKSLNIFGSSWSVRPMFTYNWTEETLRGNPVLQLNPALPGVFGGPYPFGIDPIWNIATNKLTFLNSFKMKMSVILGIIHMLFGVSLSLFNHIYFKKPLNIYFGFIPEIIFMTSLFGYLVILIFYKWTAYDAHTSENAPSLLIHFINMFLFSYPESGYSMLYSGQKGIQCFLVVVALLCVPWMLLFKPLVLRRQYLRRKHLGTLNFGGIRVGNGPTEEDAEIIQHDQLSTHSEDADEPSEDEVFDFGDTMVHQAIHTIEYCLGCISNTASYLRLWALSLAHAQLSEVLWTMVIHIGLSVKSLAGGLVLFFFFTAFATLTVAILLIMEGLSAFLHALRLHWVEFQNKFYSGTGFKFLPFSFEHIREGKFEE
# UniProt Q8IWJ2: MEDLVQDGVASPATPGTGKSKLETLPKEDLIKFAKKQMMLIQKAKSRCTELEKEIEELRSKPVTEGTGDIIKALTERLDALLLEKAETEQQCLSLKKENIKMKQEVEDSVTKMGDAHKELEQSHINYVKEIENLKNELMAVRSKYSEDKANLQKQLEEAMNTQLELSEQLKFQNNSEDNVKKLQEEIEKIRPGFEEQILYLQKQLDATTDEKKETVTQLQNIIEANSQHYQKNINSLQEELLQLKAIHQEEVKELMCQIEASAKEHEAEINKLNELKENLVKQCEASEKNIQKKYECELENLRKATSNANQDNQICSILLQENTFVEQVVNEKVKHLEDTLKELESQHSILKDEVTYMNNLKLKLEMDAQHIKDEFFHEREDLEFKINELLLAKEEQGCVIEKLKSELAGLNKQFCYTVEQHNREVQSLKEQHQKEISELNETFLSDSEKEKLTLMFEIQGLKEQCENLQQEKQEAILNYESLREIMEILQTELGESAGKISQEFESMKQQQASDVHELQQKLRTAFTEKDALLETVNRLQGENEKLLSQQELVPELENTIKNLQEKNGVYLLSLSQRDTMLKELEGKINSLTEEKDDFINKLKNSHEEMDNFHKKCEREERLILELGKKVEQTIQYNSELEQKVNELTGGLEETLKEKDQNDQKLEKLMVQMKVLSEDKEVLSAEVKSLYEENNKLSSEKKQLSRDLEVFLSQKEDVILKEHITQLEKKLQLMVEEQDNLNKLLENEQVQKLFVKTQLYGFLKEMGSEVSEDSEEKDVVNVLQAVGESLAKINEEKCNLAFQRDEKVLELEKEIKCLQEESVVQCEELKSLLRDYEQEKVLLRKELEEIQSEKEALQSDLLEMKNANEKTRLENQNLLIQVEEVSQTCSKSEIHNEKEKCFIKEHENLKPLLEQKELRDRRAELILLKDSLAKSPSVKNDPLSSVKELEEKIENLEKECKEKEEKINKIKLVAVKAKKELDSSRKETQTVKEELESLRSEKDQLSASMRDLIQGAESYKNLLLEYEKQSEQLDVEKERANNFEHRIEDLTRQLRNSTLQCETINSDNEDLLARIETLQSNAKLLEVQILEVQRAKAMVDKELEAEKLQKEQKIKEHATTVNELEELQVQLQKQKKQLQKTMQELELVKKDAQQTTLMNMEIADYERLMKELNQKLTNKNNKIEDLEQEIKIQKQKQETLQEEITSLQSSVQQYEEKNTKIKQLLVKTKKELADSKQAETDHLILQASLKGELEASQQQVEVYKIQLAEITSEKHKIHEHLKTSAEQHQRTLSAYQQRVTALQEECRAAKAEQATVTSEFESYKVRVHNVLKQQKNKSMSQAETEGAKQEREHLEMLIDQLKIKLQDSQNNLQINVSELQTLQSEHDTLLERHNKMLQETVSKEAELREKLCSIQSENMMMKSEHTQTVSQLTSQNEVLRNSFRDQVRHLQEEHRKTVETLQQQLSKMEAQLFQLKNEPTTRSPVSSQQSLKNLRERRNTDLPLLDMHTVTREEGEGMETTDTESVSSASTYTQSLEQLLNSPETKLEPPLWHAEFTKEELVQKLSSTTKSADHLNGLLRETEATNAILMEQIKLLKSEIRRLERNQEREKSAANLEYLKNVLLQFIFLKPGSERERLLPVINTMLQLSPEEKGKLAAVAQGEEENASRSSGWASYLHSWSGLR
# UniProt Q12965: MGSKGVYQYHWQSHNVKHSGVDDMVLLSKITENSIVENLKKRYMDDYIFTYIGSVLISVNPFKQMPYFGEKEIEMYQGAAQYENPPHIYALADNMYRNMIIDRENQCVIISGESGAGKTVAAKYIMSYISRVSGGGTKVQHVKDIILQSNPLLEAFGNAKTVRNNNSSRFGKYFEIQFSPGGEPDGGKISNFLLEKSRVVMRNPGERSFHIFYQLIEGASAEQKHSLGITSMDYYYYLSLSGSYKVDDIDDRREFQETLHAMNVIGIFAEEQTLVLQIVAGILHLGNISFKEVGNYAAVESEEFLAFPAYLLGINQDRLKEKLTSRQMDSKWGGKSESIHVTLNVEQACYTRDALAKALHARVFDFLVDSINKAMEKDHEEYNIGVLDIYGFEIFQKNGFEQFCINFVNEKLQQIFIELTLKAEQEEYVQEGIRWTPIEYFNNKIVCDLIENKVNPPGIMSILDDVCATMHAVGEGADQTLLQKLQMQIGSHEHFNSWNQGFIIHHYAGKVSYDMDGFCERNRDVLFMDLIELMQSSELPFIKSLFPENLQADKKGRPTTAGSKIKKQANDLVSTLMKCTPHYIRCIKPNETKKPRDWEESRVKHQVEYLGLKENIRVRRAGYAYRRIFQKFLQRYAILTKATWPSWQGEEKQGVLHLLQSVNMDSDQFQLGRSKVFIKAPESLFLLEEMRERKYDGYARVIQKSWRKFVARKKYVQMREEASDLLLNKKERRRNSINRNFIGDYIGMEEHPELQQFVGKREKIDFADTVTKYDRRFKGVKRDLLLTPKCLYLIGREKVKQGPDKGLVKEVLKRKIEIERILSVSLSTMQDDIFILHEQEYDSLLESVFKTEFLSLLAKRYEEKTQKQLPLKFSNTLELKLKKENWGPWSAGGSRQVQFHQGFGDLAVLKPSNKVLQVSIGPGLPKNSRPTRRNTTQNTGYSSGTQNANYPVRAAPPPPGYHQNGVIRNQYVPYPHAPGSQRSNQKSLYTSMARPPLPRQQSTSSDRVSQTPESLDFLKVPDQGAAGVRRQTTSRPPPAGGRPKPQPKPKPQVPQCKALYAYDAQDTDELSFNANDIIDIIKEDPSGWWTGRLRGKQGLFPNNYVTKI
# UniProt Q9UI12: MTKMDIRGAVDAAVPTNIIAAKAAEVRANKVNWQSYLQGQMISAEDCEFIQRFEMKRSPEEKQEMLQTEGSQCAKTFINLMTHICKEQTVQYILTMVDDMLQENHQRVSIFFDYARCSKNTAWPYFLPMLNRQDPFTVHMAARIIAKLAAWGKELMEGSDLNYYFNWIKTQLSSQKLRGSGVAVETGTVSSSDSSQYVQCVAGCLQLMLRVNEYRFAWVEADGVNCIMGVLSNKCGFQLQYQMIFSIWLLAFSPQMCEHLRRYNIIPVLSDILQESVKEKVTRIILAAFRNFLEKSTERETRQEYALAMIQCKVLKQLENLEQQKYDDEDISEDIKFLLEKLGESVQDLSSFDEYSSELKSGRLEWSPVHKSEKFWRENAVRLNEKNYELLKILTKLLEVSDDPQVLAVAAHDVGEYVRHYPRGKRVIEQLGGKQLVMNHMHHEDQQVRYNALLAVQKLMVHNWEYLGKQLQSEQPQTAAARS
# UniProt P43358: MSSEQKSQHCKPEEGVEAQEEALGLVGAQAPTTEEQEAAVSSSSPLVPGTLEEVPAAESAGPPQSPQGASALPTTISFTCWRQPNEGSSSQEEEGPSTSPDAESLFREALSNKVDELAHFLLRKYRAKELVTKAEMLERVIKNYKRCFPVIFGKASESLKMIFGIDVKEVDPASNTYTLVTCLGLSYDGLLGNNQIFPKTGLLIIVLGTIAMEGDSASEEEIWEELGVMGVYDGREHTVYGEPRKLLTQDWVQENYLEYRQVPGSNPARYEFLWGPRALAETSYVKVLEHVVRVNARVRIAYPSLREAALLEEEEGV
# UniProt P21281: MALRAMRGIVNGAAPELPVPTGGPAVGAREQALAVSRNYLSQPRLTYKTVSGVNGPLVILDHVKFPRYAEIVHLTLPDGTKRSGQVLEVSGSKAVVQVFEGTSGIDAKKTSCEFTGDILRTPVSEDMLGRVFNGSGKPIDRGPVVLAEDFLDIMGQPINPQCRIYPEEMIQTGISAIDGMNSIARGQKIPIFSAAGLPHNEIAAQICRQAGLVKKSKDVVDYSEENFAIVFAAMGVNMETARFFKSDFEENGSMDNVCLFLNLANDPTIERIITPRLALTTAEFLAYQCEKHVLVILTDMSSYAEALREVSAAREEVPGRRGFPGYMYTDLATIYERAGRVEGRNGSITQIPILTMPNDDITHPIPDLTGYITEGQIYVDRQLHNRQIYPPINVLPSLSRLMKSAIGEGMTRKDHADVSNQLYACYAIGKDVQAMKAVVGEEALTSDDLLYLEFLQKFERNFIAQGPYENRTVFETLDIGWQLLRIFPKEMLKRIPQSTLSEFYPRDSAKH
# UniProt P36543: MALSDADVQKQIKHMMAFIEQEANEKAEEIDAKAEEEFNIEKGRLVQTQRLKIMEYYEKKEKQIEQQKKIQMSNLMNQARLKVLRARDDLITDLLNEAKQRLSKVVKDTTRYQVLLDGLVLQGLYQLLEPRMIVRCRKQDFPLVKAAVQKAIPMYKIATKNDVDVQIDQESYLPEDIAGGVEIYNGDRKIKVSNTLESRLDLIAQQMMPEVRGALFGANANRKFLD
# No constants are given. Whether binding was seen depends on the method and setting. In cells and extracts the contact can be indirect. Here binding means that the protein was enriched with, or labelled near, the bait; the list need not be complete.
# B1: Non-structural maintenance of chromosomes element 4 homolog A (protein, UniProt Q9NXX6 1-385)
# chain: MSGDSSGRGPEGRGRGRDPHRDRTRSRSRSRSPLSPRSRRGSARERREAPERPSLEDTEPSDSGDEMMDPASLEAEADQGLCRQIRHQYRALINSVQQNREDILNAGDKLTEVLEEANTLFNEVSRAREAVLDAHFLVLASDLGKEKAKQLRSDLSSFDMLRYVETLLTHMGVNPLEAEELIRDEDSPDFEFIVYDSWKITGRTAENTFNKTHTFHFLLGSIYGECPVPKPRVDRPRKVPVIQEERAMPAQLRRMEESHQEATEKEVERILGLLQTYFREDPDTPMSFFDFVVDPHSFPRTVENIFHVSFIIRDGFARIRLDQDRLPVIEPVSINEENEGFEHNTQVRNQGIIALSYRDWEEIVKTFEISEPVITPSQRQQKPSA
# B2: Non-structural maintenance of chromosomes element 3 homolog (protein, UniProt Q96MG7 1-304)
# chain: MLQKPRNRGRSGGQAERDRDWSHSGNPGASRAGEDARVLRDGFAEEAPSTSRGPGGSQGSQGPSPQGARRAQAAPAVGPRSQKQLELKVSELVQFLLIKDQKKIPIKRADILKHVIGDYKDIFPDLFKRAAERLQYVFGYKLVELEPKSNTYILINTLEPVEEDAEMRGDQGTPTTGLLMIVLGLIFMKGNTIKETEAWDFLRRLGVYPTKKHLIFGDPKKLITEDFVRQRYLEYRRIPHTDPVDYEFQWGPRTNLETSKMKVLKFVAKVHNQDPKDWPAQYCEALADEENRARPQPSGPAPSS
# B3: Melanoma-associated antigen MAGEB18 (protein, UniProt Q96M61 1-343)
# chain: MPRGQKSKLRAREKRHQARCENQDLGATQATVAEGESPSPAYLLFGDRPQNLPAAETPSIPEALQGAPSTTNAIAPVSCSSNEGASSQDEKSLGSSREAEGWKEDPLNKKVVSLVHFLLQKYETKEPITKGDMIKFVIRKDKCHFNEILKRASEHMELALGVDLKEVDPIRHYYAFFSKLDLTYDETTSDEEKIPKTGLLMIALGVIFLNGNRAPEEAVWEIMNMMGVYADRKHFLYGDPRKVMTKDLVQLKYLEYQQVPNSDPPRYEFLWGPRAHAETSKMKVLEFVAKIHDTVPSAFPSCYEEALRDEEQRTQARAAARAHTAAMANARSRTTSSSFSHAK
# B4: Melanoma-associated antigen MAGEC1 (protein, UniProt O60732 1-1142)
# chain: MGDKDMPTAGMPSLLQSSSESPQSCPEGEDSQSPLQIPQSSPESDDTLYPLQSPQSRSEGEDSSDPLQRPPEGKDSQSPLQIPQSSPEGDDTQSPLQNSQSSPEGKDSLSPLEISQSPPEGEDVQSPLQNPASSFFSSALLSIFQSSPESTQSPFEGFPQSVLQIPVSAASSSTLVSIFQSSPESTQSPFEGFPQSPLQIPVSRSFSSTLLSIFQSSPERTQSTFEGFAQSPLQIPVSPSSSSTLLSLFQSFSERTQSTFEGFAQSSLQIPVSPSFSSTLVSLFQSSPERTQSTFEGFPQSPLQIPVSSSSSSTLLSLFQSSPERTHSTFEGFPQSLLQIPMTSSFSSTLLSIFQSSPESAQSTFEGFPQSPLQIPGSPSFSSTLLSLFQSSPERTHSTFEGFPQSPLQIPMTSSFSSTLLSILQSSPESAQSAFEGFPQSPLQIPVSSSFSYTLLSLFQSSPERTHSTFEGFPQSPLQIPVSSSSSSSTLLSLFQSSPECTQSTFEGFPQSPLQIPQSPPEGENTHSPLQIVPSLPEWEDSLSPHYFPQSPPQGEDSLSPHYFPQSPPQGEDSLSPHYFPQSPQGEDSLSPHYFPQSPPQGEDSMSPLYFPQSPLQGEEFQSSLQSPVSICSSSTPSSLPQSFPESSQSPPEGPVQSPLHSPQSPPEGMHSQSPLQSPESAPEGEDSLSPLQIPQSPLEGEDSLSSLHFPQSPPEWEDSLSPLHFPQFPPQGEDFQSSLQSPVSICSSSTSLSLPQSFPESPQSPPEGPAQSPLQRPVSSFFSYTLASLLQSSHESPQSPPEGPAQSPLQSPVSSFPSSTSSSLSQSSPVSSFPSSTSSSLSKSSPESPLQSPVISFSSSTSLSPFSEESSSPVDEYTSSSDTLLESDSLTDSESLIESEPLFTYTLDEKVDELARFLLLKYQVKQPITKAEMLTNVISRYTGYFPVIFRKAREFIEILFGISLREVDPDDSYVFVNTLDLTSEGCLSDEQGMSQNRLLILILSIIFIKGTYASEEVIWDVLSGIGVRAGREHFAFGEPRELLTKVWVQEHYLEYREVPNSSPPRYEFLWGPRAHSEVIKRKVVEFLAMLKNTVPITFPSSYKDALKDVEERAQAIIDTTDDSTATESASSSVMSPSFSSE
# B5: Melanoma-associated antigen MAGEC3 (protein, UniProt Q8TD91 1-643)
# chain: MLLPCHWVLDATFSDGSLGQWVKNTCATYALSPVVLPPQPQPRKKATDKDYSAFHLGHLREVRLFLRGGTSDQRMDSLVLCPTYFKLWRTLSGSPGLQLSDLHFGSQPEGKFSLRRAVSVKQREEPQDWPLNEKRTLWKDSDLPTWRRGTGYTLSLPAVSPGKRLWGEKAGSLPESEPLFTYTLDEKVDKLVQFLLLKYQAKEPLTRAEMQMNVINTYTGYFPMIFRKAREFIEILFGISLTEVDPDHFYVFVNTLDLTCEGSLSDEQGMPQNRLLILILSVIFIKGNCASEEVIWEVLNAIGPWSALAGFADVLSRLALWESEGPEAFCEESGLRSAEGSVLDLANPQGLAGHRQEDGRRGLTEASPQQKKGGEDEDMPAAGMPPLPQSPPEIPPQGPPKISPQGPPQSPPQSPLDSCSSPLLWTRLDEESSSEEEDTATWHALPESESLPRYALDEKVAELVQFLLLKYQTKEPVTKAEMLTTVIKKYKDYFPMIFGKAHEFIELIFGIALTDMDPDNHSYFFEDTLDLTYEGSLIDDQGMPKNCLLILILSMIFIKGSCVPEEVIWEVLSAIGPIQRPAREVLEFLSKLSSIIPSAFPSWYMDALKDMEDRAQAIIDTTDDATAMASASPSVMSTNFCPE
# B6: Serine/threonine-protein phosphatase 4 catalytic subunit (protein, UniProt P60510 1-307)
# chain: MAEISDLDRQIEQLRRCELIKESEVKALCAKAREILVEESNVQRVDSPVTVCGDIHGQFYDLKELFRVGGDVPETNYLFMGDFVDRGFYSVETFLLLLALKVRYPDRITLIRGNHESRQITQVYGFYDECLRKYGSVTVWRYCTEIFDYLSLSAIIDGKIFCVHGGLSPSIQTLDQIRTIDRKQEVPHDGPMCDLLWSDPEDTTGWGVSPRGAGYLFGSDVVAQFNAANDIDMICRAHQLVMEGYKWHFNETVLTVWSAPNYCYRCGNVAAILELDEHLQKDFIIFEAAPQETRGIPSKKPVADYFL
# B7: Serine/threonine-protein phosphatase 4 regulatory subunit 2 (protein, UniProt Q9NY27 1-417)
# chain: MDVERLQEALKDFEKRGKKEVCPVLDQFLCHVAKTGETMIQWSQFKGYFIFKLEKVMDDFRTSAPEPRGPPNPNVEYIPFDEMKERILKIVTGFNGIPFTIQRLCELLTDPRRNYTGTDKFLRGVEKNVMVVSCVYPSSEKNNSNSLNRMNGVMFPGNSPSYTERSNINGPGTPRPLNRPKVSLSAPMTTNGLPESTDSKEANLQQNEEKNHSDSSTSESEVSSVSPLKNKHPDEDAVEAEGHEVKRLRFDKEGEVRETASQTTSSEISSVMVGETEASSSSQDKDKDSRCTRQHCTEEDEEEDEEEEEESFMTSREMIPERKNQEKESDDALTVNEETSEENNQMEESDVSQAEKDLLHSEGSENEGPVSSSSSDCRETEELVGSNSSKTGEILSESSMENDDEATEVTDEPMEQD
# B8: Serine/threonine-protein phosphatase 4 regulatory subunit 3A (protein, UniProt Q6IN85 1-833)
# chain: MTDTRRRVKVYTLNEDRQWDDRGTGHVSSGYVERLKGMSLLVRAESDGSLLLESKINPNTAYQKQQDTLIVWSEAENYDLALSFQEKAGCDEIWEKICQVQGKDPSVDITQDLVDESEEERFDDMSSPGLELPSCELSRLEEIAELVASSLPSPLRREKLALALENEGYIKKLLELFHVCEDLENIEGLHHLYEIIKGIFLLNRTALFEVMFSEECIMDVIGCLEYDPALSQPRKHREFLTKTAKFKEVIPISDPELKQKIHQTYRVQYIQDMVLPTPSVFEENMLSTLHSFIFFNKVEIVGMLQEDEKFLTDLFAQLTDEATDEEKRQELVNFLKEFCAFSQTLQPQNRDAFFKTLSNMGILPALEVILGMDDTQVRSAATDIFSYLVEYNPSMVREFVMQEAQQNDDVSKKLTEQKITSKDILLINLIIEHMICDTDPELGGAVQLMGLLRTLVDPENMLATANKTEKTEFLGFFYKHCMHVLTAPLLANTTEDKPSKDDFQTAQLLALVLELLTFCVEHHTYHIKNYIINKDILRRVLVLMASKHAFLALCALRFKRKIIGLKDEFYNRYIMKSFLFEPVVKAFLNNGSRYNLMNSAIIEMFEFIRVEDIKSLTAHVIENYWKALEDVDYVQTFKGLKLRFEQQRERQDNPKLDSMRSILRNHRYRRDARTLEDEEEMWFNTDEDDMEDGEAVVSPSDKTKNDDDIMDPISKFMERKKLKESEEKEVLLKTNLSGRQSPSFKLSLSSGTKTNLTSQSSTTNLPGSPGSPGSPGSPGSPGSVPKNTSQTAAITTKGGLVGLVDYPDDDEDDDEDEDKEDTLPLSKKAKFDS
# Target: T7-2xStrep-JCV LT-Ag (JC virus (JCV)) (UniProt P03072)
# Assay: affinity purification with mass spectrometry
row,Molecule,binding
1,Melanoma-associated antigen MAGEA1 (from UniProt P43355 1-309),binds
2,Replication protein A 70 kDa DNA-binding subunit (from UniProt P27694 1-616),binds
3,Yb-1 (Y-box binding protein) (from UniProt P67809 1-324),binds
4,V-type proton ATPase subunit a (from UniProt Q93050 1-837),binds
5,Actin related protein 2/3 complex subunit 1A variant (from UniProt Q92747 1-370),binds
6,RIP and coiled-coil domain-containing protein 2 (from UniProt Q8IWJ2 1-1684),binds
7,"MYO1E variant protein, Unconventional myosin-Ie (from UniProt Q12965 1-1108)",binds
8,Neurabin-2 (from UniProt Q96SB3 1-817),binds
9,"ATPase, H+ transporting, lysosomal 50/57 kDa, V1 subunit H, isoform (from UniProt Q9UI12 1-483)",binds
10,Tight junction protein ZO-1 (from UniProt Q07157 1-1748),binds
11,"Melanoma antigen family A, 4, isoform CRA_a (from UniProt P43358 1-317)",binds
12,Myosin-14 (from UniProt Q7Z406 1-1995),binds
13,"V-type proton ATPase subunit B, brain isoform (from UniProt P21281 1-511)",binds
14,V-type proton ATPase subunit d 1 (Fragment) (from UniProt P61421 1-351),binds
15,Structural maintenance of chromosomes protein 5 (from UniProt Q8IY18 1-1101),binds
16,"ATPase, H+ transporting, lysosomal 31 kDa, V1 subunit E isoform (from UniProt P36543 1-226)",binds
17,B1,binds
18,B2,binds
19,B3,binds
20,B4,binds
21,B5,binds
22,B6,binds
23,B7,binds
24,B8,binds
